Source: patent US20180010140A1 (WASHINGTON STATE UNIVERSITY, published 2018)
No constants are given. Whether binding was seen depends on the method and setting. In cells and extracts the contact can be indirect. Some binding calls cover weakened binding; strength is not graded here. For some assays here: Tags and fused reporters may be left off the sequences shown.

Protein sequences, listed by entry. Tags and fused reporters are not part of them.
UniProt Q6X5Y6: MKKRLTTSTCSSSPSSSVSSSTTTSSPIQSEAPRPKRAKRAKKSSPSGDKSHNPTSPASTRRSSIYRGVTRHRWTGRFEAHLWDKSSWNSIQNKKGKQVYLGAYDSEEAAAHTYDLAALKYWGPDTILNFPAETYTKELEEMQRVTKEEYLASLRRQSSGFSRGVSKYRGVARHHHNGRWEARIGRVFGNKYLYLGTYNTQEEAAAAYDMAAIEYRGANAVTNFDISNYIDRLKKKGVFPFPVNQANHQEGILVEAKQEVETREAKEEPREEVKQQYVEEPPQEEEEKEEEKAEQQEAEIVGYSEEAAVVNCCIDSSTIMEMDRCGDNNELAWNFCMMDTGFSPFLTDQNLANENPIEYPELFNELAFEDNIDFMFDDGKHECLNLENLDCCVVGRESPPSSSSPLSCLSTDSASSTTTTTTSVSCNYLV

Assays:
[1] = target: endogenous WRI1 in Arabidopsis plant extract (Arabidopsis thaliana) (UniProt Q6X5Y6); experiment: GST pull-down from plant extract, Western blot with α-WRI1
[2] = target: endogenous WRI1 in Arabidopsis plant extract (Arabidopsis thaliana) (UniProt Q6X5Y6); experiment: GST pull-down from WT plant extract
[3] = target: T1, in vitro translated, [35S]-methionine labeled BPM1 (Arabidopsis thaliana) (UniProt Q8L765); experiment: GST pull-down of in vitro translated, radiolabeled BPM1
T1 sequence ([35S]-methionine labeled (printed '[^355]-methionine labeled'), looked up): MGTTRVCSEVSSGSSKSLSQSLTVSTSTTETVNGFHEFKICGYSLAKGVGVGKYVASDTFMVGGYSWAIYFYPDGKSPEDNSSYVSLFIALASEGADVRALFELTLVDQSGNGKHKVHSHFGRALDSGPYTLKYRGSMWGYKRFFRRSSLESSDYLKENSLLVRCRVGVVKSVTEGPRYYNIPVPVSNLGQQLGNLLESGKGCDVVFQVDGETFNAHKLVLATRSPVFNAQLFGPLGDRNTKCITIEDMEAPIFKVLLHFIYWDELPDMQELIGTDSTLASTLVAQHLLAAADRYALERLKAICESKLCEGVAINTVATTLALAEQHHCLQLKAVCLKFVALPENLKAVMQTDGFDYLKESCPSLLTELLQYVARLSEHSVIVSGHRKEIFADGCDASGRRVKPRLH

[4] = target: His:WRI1 (Arabidopsis thaliana) (UniProt Q6X5Y6); experiment: pull-down with purified E. coli proteins (His:WRI1 on nickel resin, GST:BPM1 and GST:CUL3a added)
[5] = target: T2, GST:CUL3a (Arabidopsis thaliana) (UniProt Q9ZVH4); experiment: as above
T2 sequence (looked up): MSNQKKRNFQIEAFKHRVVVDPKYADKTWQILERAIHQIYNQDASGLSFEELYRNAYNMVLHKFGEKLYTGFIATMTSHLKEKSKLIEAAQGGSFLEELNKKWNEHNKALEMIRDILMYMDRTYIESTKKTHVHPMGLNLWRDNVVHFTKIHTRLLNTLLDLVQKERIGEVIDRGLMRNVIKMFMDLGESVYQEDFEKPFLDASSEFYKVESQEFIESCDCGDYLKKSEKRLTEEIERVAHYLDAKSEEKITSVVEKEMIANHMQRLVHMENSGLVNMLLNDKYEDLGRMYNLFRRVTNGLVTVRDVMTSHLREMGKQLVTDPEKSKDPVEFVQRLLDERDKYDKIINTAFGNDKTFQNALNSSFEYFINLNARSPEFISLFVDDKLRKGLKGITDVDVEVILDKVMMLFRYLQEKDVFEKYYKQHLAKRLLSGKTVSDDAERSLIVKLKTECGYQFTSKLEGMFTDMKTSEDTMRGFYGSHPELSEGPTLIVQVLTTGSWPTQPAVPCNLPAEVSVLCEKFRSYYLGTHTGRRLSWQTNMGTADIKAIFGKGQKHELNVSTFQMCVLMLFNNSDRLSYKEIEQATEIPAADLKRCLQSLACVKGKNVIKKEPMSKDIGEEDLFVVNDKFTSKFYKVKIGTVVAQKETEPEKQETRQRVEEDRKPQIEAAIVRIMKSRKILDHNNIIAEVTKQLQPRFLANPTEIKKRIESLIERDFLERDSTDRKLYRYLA

Molecule: GST:WRI1 (from UniProt Q6X5Y6 1-430)
- binding [1]: binds
- binding [2]: binds
- binding [3]: binds

B1: GST:BPM1 (protein, Arabidopsis thaliana, UniProt Q8L765 1-407, looked up, not shown: a dimerising Fc or GST)
chain: MGTTRVCSEVSSGSSKSLSQSLTVSTSTTETVNGFHEFKICGYSLAKGVGVGKYVASDTFMVGGYSWAIYFYPDGKSPEDNSSYVSLFIALASEGADVRALFELTLVDQSGNGKHKVHSHFGRALDSGPYTLKYRGSMWGYKRFFRRSSLESSDYLKENSLLVRCRVGVVKSVTEGPRYYNIPVPVSNLGQQLGNLLESGKGCDVVFQVDGETFNAHKLVLATRSPVFNAQLFGPLGDRNTKCITIEDMEAPIFKVLLHFIYWDELPDMQELIGTDSTLASTLVAQHLLAAADRYALERLKAICESKLCEGVAINTVATTLALAEQHHCLQLKAVCLKFVALPENLKAVMQTDGFDYLKESCPSLLTELLQYVARLSEHSVIVSGHRKEIFADGCDASGRRVKPRLH
- binding [4]: binds
- binding [5]: binds
